Measured values published in PubChem BioAssay AID493014 (National Center for Advancing Translational Sciences (NCATS), 2011).
About 170 (0.05%) of roughly 340,000 compounds were called active. Inconclusive means that the source gave no clear call. Such entries were picked first, then a sample of the others. Calls come from the whole dose curve; as a rule, active = well fitted inhibition curve with a large enough effect in the signal ratio, with a control signal flat (not every such curve was filed as active); inconclusive = small, poorly fitted or top-dose-only effect, or effect the other way, or a change in a side signal; inactive = flat fitted curve, though single readings scatter; the % refers to the signal ratio. Potencies of inconclusive entries are doubtful fits and often do not repeat.

assay: qHTS Assay to Find Inhibitors of Chronic Active B-Cell Receptor Signaling; settings: ABC-DLBCL IkBa-CBG/CBR reporter, luminescence ratio (green luciferase fused to IkBa over red control in TMD8 lymphoma cells), 4 h; activity change, negative = inhibition: at 46.1 µM (top of the series);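 for activity change, negative = inhibition: plate controls were basal doxycycline-induced cells for no effect and cells given 10 µM MG132 for full effect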
Outline: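 Cell line TMD8 (human ABC DLBCL), stably expressing tet-inducible CBG68-IkBa fusion and CBR; IMDM/0.5% FBS; cpd up to 46 uM; dox induction, 4 h, 37C/5% CO2; dual luminescence; green/red ratio; MG132 control.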
Potency is the fitted concentration of half-maximal effect.

| SMILES | activity change, negative = inhibition | Potency |
| --- | --- | --- |
| COCc1cc(C)n(CC(=O)Nc2ccc(Cl)cc2Cl)c(=O)c1C#N | inactive: 10.1% | – |
| CCc1ccc(CN(C(=O)c2cc3ccccc3oc2=O)C2CCS(=O)(=O)C2)cc1 (stereo not given) | – | inconclusive: 20 µM [falling, single point] |
| COc1ccc(OC)c(Nc2ncnc3ccc(Br)cc23)c1 | inactive: -3.22% | – |
| Cc1ccn2c(CNCCn3nc(C)cc3C)c(C(=O)N3CCCCCC3)nc2c1 | – | inconclusive: 5.62 µM [falling, single point] |
| COC(=O)c1ccc(C)c(NC(=O)CCSc2ccc(Cl)cc2)c1 | inconclusive: 11.7% | – |
| CC(C)(C)NC(=O)C(c1ccncc1)N(Cc1ccco1)C(=O)c1ccc(-c2ccccc2)[nH]1 (stereo not given) | inconclusive: 18% | – |
| CCCCCC1C(=O)C[C@@H]2CCN3C(=O)CCC[C@H]1[C@H]23 (stereo not given in full) | inconclusive: 2.65% | – |
| CCN(CC)C(=O)Oc1ccc2c(=O)c(-c3ccc(OC)cc3)c(C)oc2c1 | inactive: -8.56% | – |
| CCNC(=S)N/N=C(\C)c1ccc(Cl)s1 | – | inconclusive: 9.2 µM [falling, partial curve] |
| Cc1cccc2cc(/C=C/C(=O)c3ccco3)c(Cl)nc12 | – | inconclusive: 5.62 µM [falling, partial curve, poor fit] |
| O=C(NCCCCNC(=O)c1cccnc1)c1cccnc1 | inconclusive: 2.27% | – |
| COc1ccccc1C(=O)Oc1cc(N)n(S(=O)(=O)c2ccccc2)n1 | – | inconclusive: 11.2 µM [cytotoxic, partial curve] |
| CC(OC(=O)/C=C/c1ccccc1)C(=O)N1CCc2ccccc21 (stereo not given) | inactive: -4.4% | – |
| Cc1oc(-c2ccccc2)cc1C(=O)Nc1cccc(C(=O)O)c1 | – | inconclusive: 0.366 µM [rising, full curve] |
| Cc1cc2ccccc2n2c(SCC(=O)NCc3cccs3)nnc12 | inconclusive: 15% | – |
| Cc1ccc2nc3c(cc(C(N)=S)c(=N)n3CCCOC(C)C)c(=O)n2c1 | inactive: 11.1% | – |
| Fc1ccccc1NC(=S)NCCc1cccc(Cl)c1 | inconclusive: 5.78% | – |
| CCCCN(CC)CCCNC(=O)c1cc2c(-c3ccc(OC)c(OC)c3)nn(C)c2s1 | inactive: -24.6% | – |
| Cc1c(C(=O)c2ccc(Cl)cc2[N+](=O)[O-])c2ccccn2c1CCC#N | inactive: -5.44% | – |
| Cn1c(=O)c2c(nc(CN3CCN(C(c4ccccc4)c4ccccc4)CC3)n2CCCO)n(C)c1=O | inconclusive: 0.738% | – |

Of the compounds above, 2 contain two or more sulfur atoms.

| SMILES | activity change, negative = inhibition | Potency |
| --- | --- | --- |
| CCNC(=S)N/N=C(\C)c1ccc(Cl)s1 | – | inconclusive: 9.2 µM [falling, partial curve] |
| Cc1cc2ccccc2n2c(SCC(=O)NCc3cccs3)nnc12 | inconclusive: 15% | – |

(further entries)

| SMILES | activity change, negative = inhibition | Potency |
| --- | --- | --- |
| O=C(CN1CCN(Cc2ccc(Cl)cc2)C1=O)NCc1ccc(F)cc1 | inconclusive: 14.1% | – |
| COc1cc(C(=O)OC(C)CN2CCCCC2)cc(OC)c1OC (stereo not given) | inconclusive: -1.42% | – |
| COc1ccc(OC)c(NC(=O)CCCNC(=O)c2ccc(Cl)cc2)c1 | inconclusive: -4.19% | – |
| CN=C1S/C(=C\c2ccc(Cl)cc2)C(=O)N1C | inactive: 6.25% | – |
| O=[N+]([O-])c1cc(S(=O)(=O)Nc2ccc(Cl)cc2)ccc1N/N=C/c1ccncc1 | inactive: 1.28% | – |
| Cc1ccc(C)c(SCC(=O)N(C)CC(=O)Nc2ccc(N3CCOCC3)cc2)c1 | inconclusive: -3.19% | – |
| CC(C)[C@H](NC(=O)c1ccccc1)C(=O)OCC(=O)N1CCCc2ccccc21 | inconclusive: 1.36% | – |
| O=C(CCc1nc(-c2ccccc2F)no1)NCCN1CCc2ccccc2C1 | inconclusive: 4.9% | – |
| Cc1[nH]n(-c2ccccc2)c(=O)c1/C=N/NC(=O)C(C)C | – | inconclusive: 35.5 µM [falling, single point] |
| Cc1nn2c3c(cnc2c1-c1ccccc1)C(=O)CCC3 | inactive: -3.35% | – |
| Cc1ccc(NC(=O)c2ccc3c(c2)OCO3)cc1S(=O)(=O)N1CCOCC1 | inconclusive: 1.85% | – |
| CCCSc1nc2c(cnn2-c2ccccc2)c(=O)n1N | – | inconclusive: 22.4 µM [falling, partial curve] |
| COc1cc(SC)ccc1C(=O)Nc1ccc(Cl)cn1 | – | inconclusive: 11.2 µM [falling, partial curve] |
| OCCNCc1ccc(OCc2ccc(Cl)cc2Cl)cc1 | inconclusive: -5.1% | – |
| Nc1cc(C(=O)N2CCCC2)cc(C(=O)N2CCCC2)c1 | inconclusive: 9.23% | – |
| Cc1nc(C(C)NC(=O)c2cc(COc3ccc(C)c(C)c3)on2)c(C)s1 (stereo not given) | inactive: -0.725% | – |
| COCCN(CC(=O)Nc1cccc(C)c1C)C(=O)c1ccc2ccccc2n1 | inconclusive: 4.26% | – |
| O=C(NNC(=S)NC1CCCCC1)c1sc2ccccc2c1Cl | – | inconclusive: 14.6 µM [falling, partial curve] |
| COc1ccc(C(=O)/C(C)=N/O)cc1OC | inconclusive: 15.3% | – |
| CCOC(=O)C1=C(O)/C(=C/c2cc(OC)c(OC)c(OC)c2)N=C1C | inactive: 0.016% | – |
